# Some results were stated once for a whole list of compounds, not compound by compound. Some compounds share one range, which may span the group rather than tell each member.
# Tested on: lipid droplets formation in mouse peritoneal macrophage
# Assay: Lipid droplets formation in mouse peritoneal macrophage (oil red O / hematoxylin staining)
# Type: cell-based
# Conditions: 40 μM, 14 hours
# Method: Inhibitory action of FO-6979 substances of the present invention on lipid droplets formation in mouse peritoneal macrophage is explained.
# Lipid droplets formation in mouse peritoneal macrophage was performed according to the method of Namatame et al. (J. Biochem. 125:319–327, 1999). Macrophage isolated from mouse peritoneal fluid was suspended at 2.0×10^6 cells/ml in Dulbecco's modified Eagle's medium containing 6.8% lipoprotein deficient serum (6.8% LPDS-DMEM) and aliquots (0.25 ml) were dispensed into a slide chamber (Nunc Co.).
# The chamber was incubated in a humidified 5% CO2 atmosphere incubator at 37° C. for 2 hours, after which the chamber was washed with Hank's solution to remove the unattached cells. The chamber was incubated in 6.8% LPDS-DMEM for 1 hour, and FO-6979-M3 substance (2.5 μl methanol solution) and liposome [consisting of phosphatidylcholine/phosphatidylserine/dicetylphosphate/cholesterol=10:10:2:15 (nmol) in 10 μl of 0.3 M glucose] were added therein, then incubated further 14 hours.
# The lipid droplets and nuclei were double stained with oilred O and hematoxylin, and observed by optical microscope (Olympus OpticalCo., Japan).
row,SMILES,decrease of lipid droplets accumulation
1,CCCCCCC(C)C1CC(=O)N[C@@H](C(C)C)C(=O)N[C@@H](C)C(=O)N[C@H]([C@@H](C)CC)C(=O)O1 (stereo partly drawn) [FO-6979-M4 substance],10–20%
2,CCCCC(C)C1CC(=O)N[C@@H](C(C)C)C(=O)N[C@@H](C)C(=O)N[C@H](C(C)C)C(=O)O1 (stereo partly drawn) [FO-6979-M0 substance],10–20%
3,CCCCC(C)C1CC(=O)N[C@@H](C(C)C)C(=O)N[C@@H](C)C(=O)N[C@H]([C@@H](C)CC)C(=O)O1 (stereo partly drawn) [FO-6979-M1 substance],10–20%
